# In the supplement of paper PMC12889115:
# Some of the results follow. Values are raw readings; no control value is given beside them.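 In the initial screen, polymyxin B was used at a concentration that permeabilizes Salmonella's outer membrane but not its inner membrane. Maximum growth was set by DMSO wells with or without polymyxin B. Since plates varied, data were ranked per plate, and compounds giving the lowest OD600 advanced as hits.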
# System: Salmonella enterica serovar Typhimurium SL1344
# Test: bacterial growth OD600 after 18 h with compound and polymyxin B; higher = more bacterial growth (less inhibition)
# Details: 50 µM, Mueller-Hinton broth
SMILES,bacterial growth OD600 (polymyxin B 1 µg/mL),bacterial growth OD600 (polymyxin B 0.75 µg/mL)
CN(Cc1ccccc1Cl)C(=O)C1CCC(=O)N(CCc2cccc(F)c2)C1 (stereo not drawn),0.851,
COc1cccc(C(C)N(C)Cc2nc(COc3ccccc3)no2)c1 (stereo not drawn),0.84,
Cc1nn(C)c(C)c1CN(C(=O)c1cc(COc2cccc3cnccc23)on1)C1CC1,0.881,
COc1ccc(C(=O)NC2CC2)c(OC2CCN(Cc3ccc(C)o3)CC2)c1,0.932,
O=C(NCc1cccnc1)c1cc(CN2CCC(Cc3ccccc3)CC2)on1,0.938,
Cc1ccc(Oc2ncccc2CNC2Cc3ccccc3C2)cn1,0.858,
Cn1cc(CN2CCSCC2)c(-c2ccc(Oc3ccccc3)cc2)n1,0.043,
COc1ccc(C(=O)N(Cc2ccc(OCCCc3cccnc3)cc2)[C@H]2CCCCNC2=O)c(OC)c1,,0.885
O=C1CCC(CCC(=O)N2CCC(c3ccccc3F)C2)(Cc2cccs2)N1 (stereo not drawn),,1.03
O=C1CCCN1CC(=O)N1CCCC(CCc2cccc(C(F)(F)F)c2)C1 (stereo not drawn),,0.004
COc1cccc(OCc2nc(C(=O)N(C)Cc3cnc4ccccn34)co2)c1,1.16,
CCC1CN(Cc2ccc3c(c2)OCO3)Cc2cc(OC)ccc2O1 (stereo not drawn),,0.655
CCN(CCn1cccn1)C(=O)C1CCC(=O)N(CCCN2CCCC2=O)C1 (stereo not drawn),0.866,
O=C(c1cc(COc2cccc(F)c2)[nH]n1)N1CCN(CC2CC2)CC1,0.961,
Cc1nc2cc(OCc3cc(C(=O)N(C)C(C)c4ccon4)no3)ccc2s1 (stereo not drawn),0.92,
Cc1ccc2c(c1)CN(Cc1ccncc1)CC(c1ccsc1)O2 (stereo not drawn),,0.005
Cc1nnc(CNC(=O)CC(c2ccccc2)c2ccccc2Cl)[nH]1 (stereo not drawn),,0.735

# A second format for some results above.
SMILES	bacterial growth OD600 (polymyxin B 1 µg/mL)	bacterial growth OD600 (polymyxin B 0.75 µg/mL)
Cc1nc2cc(OCc3cc(C(=O)N(C)C(C)c4ccon4)no3)ccc2s1 (stereo not drawn)	0.92	
Cc1ccc2c(c1)CN(Cc1ccncc1)CC(c1ccsc1)O2 (stereo not drawn)		0.005

# Remaining list, next part.

SMILES,bacterial growth OD600 (polymyxin B 1 µg/mL),bacterial growth OD600 (polymyxin B 0.75 µg/mL)
Cc1noc(C)c1CCCNC(=O)c1ccc(N(C)C2CCOC2)nc1 (stereo not drawn),1.1,
O=C(CCC1CCN(Cc2c[nH]nc2C2CCCCC2)CC1)NCc1cccnc1,0.958,
O=C(c1cn(CC2CCCO2)nn1)N1CCN(Cc2ccc3c(c2)OCO3)CC1 (stereo not drawn),0.898,
O=C(Nc1cccc(N2CCNC2=O)c1)C1CC12CCN(C(=O)c1ccccc1Cl)CC2 (stereo not drawn),,0.826
O=C(NCC1OCCc2ccccc21)c1coc(COc2ccccc2)n1 (stereo not drawn),,0.002
O=C([C@@H]1C[C@H]1c1ccccc1)N1Cc2ccccc2OC(c2ccccc2)C1 (stereo partly drawn),,0.003
CC(C)/C=C/C(=O)N1CCC(C2(c3ccccn3)NC(=O)N(CCc3cccs3)C2=O)CC1 (stereo not drawn),,0.931
COC(=O)c1ccccc1C(=O)N1CCc2c(cnc(C)c2CNS(=O)(=O)c2cccs2)C1,,0.88
CCCC1(C2CCN(C(=O)/C(F)=C/c3ccccc3)CC2)NC(=O)N(Cc2ccco2)C1=O (stereo not drawn),,0.827
CC(=O)N1CCN(c2ncccc2CNc2ncccc2C(F)(F)F)CC1,0.911,
CCc1cc(CNC(=O)CC(c2ccccc2)c2ccc3c(c2)OCO3)on1 (stereo not drawn),0.94,
CN(Cc1nc(Cc2ccccc2Cl)no1)C(C1CC1)C1CC1,0.605,
O=C(CC1=CCCCC1)NC1CC(=O)N(Cc2ccc(F)cc2)C1 (stereo not drawn),0.917,
O=C(C1=CCCC1)N1CCC(C2(c3ccccn3)NC(=O)N(CCc3cccs3)C2=O)CC1 (stereo not drawn),,0.818
O=C(NC1CC1)C1CCC(=O)N(Cc2cccc(C(F)(F)F)c2)C1 (stereo not drawn),0.832,
Cc1cccc(CN2CCCC3(CCN(C(=O)CCc4c(C)nn(C)c4C)C3)C2)c1 (stereo not drawn),0.895,
